No signal at the amounts used counts as a negative.
Molecular target: Myc DNA-binding domain (synthetic, S-arylated) Y402C, then Cys402 S-arylated with Pd-2 to a Tyr mimic (UniProt P01106)
Assay: EMSA
Details: Myc alone, 1 uM DNA, 0, 4, 8 uM protein; EMSA: 10 mM MES, 150 mM KCl, 1 mM MgCl2, 10% glycerol, room temperature 1 h, 10% TBE gel, pH not given

Amino acid sequences for entries named in this document (tags omitted). Residues count along the entry.
UniProt P01106, 369-449, stated change not applied: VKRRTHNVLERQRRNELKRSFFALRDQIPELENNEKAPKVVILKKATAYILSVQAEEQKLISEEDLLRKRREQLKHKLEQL

“CCGGCTGACACGTGGTATTAAT (double strand) [E-box DNA probe (22 bp)]”: no binding.

Source: publication PMC10324392
